Data: article PMC7321169, “N-Alkylaminoferrocene-Based Prodrugs Targeting Mitochondria of Cancer Cells” (Molecules, 2020)

Tested on: BL-2 cells
Assay: Prodrug uptake by BL-2 cells, intracellular boron by curcumin assay
Assay type: cell-based
Conditions: prodrug 1 μM, 1 h, cells only 0.54

Row | Structure (SMILES) | ∆A (mean), baseline corrected absorbance at 550 nm proportional to boron
1 | CC1(C)OB(c2ccc(COC(=O)N(Cc3cccc(CN4CCCCC4)c3)[c-]3cccc3)cc2)OC1(C)C.[Fe+2].c1cc[cH-]c1 [prodrug 8] | 1.90
2 | COC(=O)CCCCCn1cc(CN(C(=O)OCc2ccc(B3OC(C)(C)C(C)(C)O3)cc2)[c-]2cccc2)nn1.[Fe+2].c1cc[cH-]c1 [prodrug 9] | 0.98
